This is one part of the list. Repeats in this data set agree poorly, so a single value says little.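 In a drug-repurposing library screen, luminescence reads luciferase driven by eight TEAD-binding elements, stably integrated into human kidney-derived cells. Compounds scoring over five robust Z scores above the plate mean are called hits.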

Data on 25 compounds can be found in the supplement of paper PMC10735217.

The test relates to HEK293A TEAD-LUC reporter. The test is described as follows: TEAD-luciferase reporter activity (YAP activation), robust Z score vs plate; higher = stronger YAP/TEAD activation. To be noted: 24 h.

Take `COc1cc(CNC(=O)CCCC/C=C/C(C)C)ccc1O` [civamide]: under “compound concentration: 2 uM”, the TEAD-luciferase reporter activity was inactive: -1.24.
On to `COc1cc(CNC(=O)CCCC/C=C/C(C)C)ccc1O` [Capsaicin], for which the TEAD-luciferase reporter activity reads like this: (compound concentration: 200 nM) inactive: 0.568; (compound concentration: 10 uM) inactive: 1.13.
`O=C(N[C@@H]1c2ccccc2C[C@@H]1c1ccc(O)cc1)C(c1ccccc1)c1ccccc1`: the TEAD-luciferase reporter activity is, setting by setting: (compound concentration: 200 nM) inactive: -0.889; (compound concentration: 2 uM) inactive: 2.27; (compound concentration: 10 uM) inactive: 0.557.
For the compound `CNC(=O)c1c(-c2ccc(F)cc2)oc2cc(N(CCO)S(C)(=O)=O)c(C3CC3)cc12` [nesbuvir], the TEAD-luciferase reporter activity was inactive: -1.31 (compound concentration: 200 nM), inactive: -1.04 (compound concentration: 2 uM) and inactive: 0.616 (compound concentration: 10 uM).
On the same counts, the results for `CCN/C(=N\S(=O)(=O)c1ccc2c(c1)CCN2C(C)=O)N1CC(CC)C=N1` (centres undefined) are inactive: -2.22, inactive: -0.691 and inactive: -0.588.
In the case of `COc1cc2c(-c3ccc4c(c3)OCO4)c(C(=O)O)n(Cc3ccc4c(c3)OCO4)c2cc1OCc1ccccc1`, the TEAD-luciferase reporter activity was inactive: -1.89 (compound concentration: 200 nM), inactive: -0.417 (compound concentration: 2 uM) and inactive: -0.359 (compound concentration: 10 uM).
On the same counts, the results for `CCOc1ccc2c(c1)NCC2(C)C` are inactive: -0.0517, inactive: -0.485 and inactive: -0.164.
As to `CN1CCN(C(=O)c2cccc(-c3nc(N)nc(-c4ccccc4O)n3)c2)CC1`, the TEAD-luciferase reporter activity (compound concentration: 2 uM) is inactive: -0.881.
In the case of `Cc1cnc(C(=O)N[C@@H]2CCCCC/C=C\[C@@H]3CC3(C(=O)NS(=O)(=O)C3CC3)NC(=O)[C@@H]3CC(Oc4nc5ccccc5c5ccccc45)CN3C2=O)cn1` (some centres undefined) [Paritaprevir], the TEAD-luciferase reporter activity was inactive: -1.32 (compound concentration: 200 nM), inactive: -0.366 (compound concentration: 2 uM) and inactive: -0.00251 (compound concentration: 10 uM).
For `O=C(O)c1ccccc1OS(=O)(=O)[O-]` the same measures were inactive: -1.09, inactive: -1.88 and inactive: -0.518.
For the compound `CC=CC(=O)N(CCC)C(CC)C(=O)N(C)C` (centres undefined), the TEAD-luciferase reporter activity runs as follows: (compound concentration: 200 nM) inactive: -0.934; (compound concentration: 2 uM) inactive: -0.887; (compound concentration: 10 uM) inactive: -0.226.
On the same counts, the results for `O=C(O)Cc1csc(/N=C2\SC[C@@H]3Cc4ccccc4CN23)n1` are inactive: -1.71, inactive: -0.0557 and inactive: -0.00585.
Turning to `COc1cc(CN2CCCCC23Cc2ccccc2CNC3=O)cc(OC)c1` (centres undefined), the TEAD-luciferase reporter activity runs as follows: (compound concentration: 200 nM) inactive: -0.561; (compound concentration: 10 uM) inactive: 0.462.
For the compound `CC(C)(O)c1ccn2c(-c3ccc(F)c(-c4c(F)cccc4C#N)c3)cnc2n1` [GABAalpha2/alpha3 agonists], the TEAD-luciferase reporter activity reads like this: (compound concentration: 200 nM) inactive: -1.06; (compound concentration: 2 uM) inactive: 1.96; (compound concentration: 10 uM) inactive: -0.481.
On the same counts, the results for `O=C(/C(=C/c1ccc(Cl)cc1Cl)n1ccnc1)c1ccc(Cl)cc1` are inactive: -1.19, inactive: -1.68 and inactive: 0.551.
On the same counts, the results for `CC(=O)NC(CCC(N)=O)C(=O)O` (centres undefined) are inactive: 1.16, inactive: -0.9 and inactive: 0.808.
On to `C#C[C@]1(O)CC[C@H]2[C@@H]3[C@H](C)CC4=C(CCC(=C)C4)[C@H]3CC[C@@]21C`, for which the TEAD-luciferase reporter activity was inactive: -0.671 (compound concentration: 200 nM), inactive: 0.0734 (compound concentration: 2 uM) and inactive: -1.89 (compound concentration: 10 uM).
On the same counts, the results for `O=C1c2cc(CCCCO)ccc2OCc2ccsc21` are inactive: -1.64, inactive: 1.4 and inactive: 1.88.
As to `CCN(CC(=O)N[C@@H](CC(=O)O)C(=O)N[C@H](CC1CCCCC1)C(N)=O)C(=O)CCCC1CCNCC1` [Alnidofibatide], the TEAD-luciferase reporter activity (compound concentration: 200 nM) was inactive: -1.16, the TEAD-luciferase reporter activity (compound concentration: 2 uM) is inactive: -0.621 and the TEAD-luciferase reporter activity (compound concentration: 10 uM) is inactive: 0.46.
For the compound `COc1c(N2CC(C)C(N)C2)c(F)cc2c(=O)c(C(=O)O)cn(C3CC3)c12` (centres undefined), the TEAD-luciferase reporter activity is inactive: -0.946 (compound concentration: 200 nM), inactive: -1.31 (compound concentration: 2 uM) and inactive: 0.311 (compound concentration: 10 uM).
On the same counts, the results for `O=Cc1ccccc1O[C@@H]1O[C@H](CO)[C@@H](O)[C@H](O)[C@H]1O` are inactive: 0.78, inactive: 1.99 and inactive: -0.0121.
For `O=C(C1CCCCC1)N1CC(=O)N2CCCc3ccccc3C2C1` (centres undefined) [Epsiprantel] the same measures were inactive: -0.42, inactive: 0.916 and inactive: -0.917.
In the case of `C/C=C1\CC[C@H]2[C@@H]3[C@@H](O)[C@H](O)[C@H]4C[C@@H](O)CC[C@]4(C)[C@H]3CC[C@]12C`, the TEAD-luciferase reporter activity reads like this: (compound concentration: 200 nM) inactive: 0.774; (compound concentration: 2 uM) inactive: 1.32; (compound concentration: 10 uM) active: 7.38.
On the same counts, the results for `COc1ccc(C[C@H]2c3cc(OC)c(OC)cc3CCN2[C@@H](C(=O)NC(C)C)c2ccccc2)cc1OC` are inactive: -0.862, inactive: -0.741 and inactive: 0.734.
In the case of `CCN(CC)C(COC(=O)c1ccc(N)cc1)CC(C)C` (centres undefined), the TEAD-luciferase reporter activity is inactive: -1.22 (compound concentration: 200 nM), inactive: -0.385 (compound concentration: 2 uM) and inactive: 0.0668 (compound concentration: 10 uM).
